Data as given in PMC12040169 (PLOS Biology, 2025).
The list shows a part of the results.

Test system: T1, CTL2-GFP (C. trachomatis L2/434/Bu, GFP-expressing)
T1 construct: L2/434/Bu, GFP-expressing
Design: species or system HeLa; Intracellular C. trachomatis growth in HeLa cells, bulk GFP fluorescence relative to DMSO
Conditions: bulk GFP, single well; 28.5 h, 10 µM; inhibitor

Structure (SMILES)	% of control remaining
CC(C)[C@@H](CO)Nc1cncc(-c2ccc(F)cc2F)n1 [CBK065875]	180.162%
CNC(=O)c1cc(-c2cccc(C)c2)oc1C [CBK047432]	136.411%
Nc1nnc(Sc2nc3ccccc3nc2C(F)(F)F)s1 [CBK093795]	105.156%
O=C(c1ccc(F)cc1)C1CCN(Cc2cc(=O)[nH]c(=O)[nH]2)CC1 [CBK149132]	101.8%
Cc1noc(C)c1CN(C)C(C)C(=O)Nc1nccs1 (stereo not shown) [CBK304826]	86.9464%
COCCn1nnnc1C(c1cc2c(C)ccc(C)c2[nH]c1=O)N1CCN(C(=O)c2ccco2)CC1 (stereo not shown) [CBK111563]	92.1946%
COCc1ccc(Nc2ccccc2S(=O)(=O)c2ccccc2)cc1OCC1CCN(C(=O)OC(C)(C)C)CC1 [CBK175577]	134.551%
c1cc(-c2nnc3n2CCCCS3)ccn1 [CBK288543]	122.482%
CC(C)n1ccnc1CNc1cccc(OCC(=O)N2CCCC2)c1 [CBK305377]	102.995%
Nc1nc2n(n1)C(c1ccccc1)C1=C(CCCC1)N2 (stereo not shown) [CBK287949]	128.071%
COc1ccc(Nc2cc(Cl)ccc2C(=O)NC(C)(C)CN2CCOCC2)cn1 [CBK107436]	96.552%
COc1ccc(NC(=S)NC(=O)CN2C(=O)c3ccccc3C2=O)c([N+](=O)[O-])c1 [CBK267594]	88.6143%
O=C(CN1CCCC1)NC1CCCc2c1cnn2-c1ccc(F)cc1 (stereo not shown) [CBK283930]	132.408%
O=C(O)CC1SC(Nc2cc(C(F)(F)F)cc(C(F)(F)F)c2)=NC1=O (stereo not shown) [CBK059095]	97.6388%
Clc1cncc(OC(c2ccccc2)C2CC2)n1 (stereo not shown) [CBK176042]	147.469%
O=C(COc1ccc(-c2ccccc2)cc1)N1CCN(S(=O)(=O)c2ccccc2[N+](=O)[O-])CC1 [CBK264154]	137.228%
COCC(C)NCc1ccccc1C (stereo not shown) [CBK027852]	98.9381%
O=C(O)c1ccc(NS(=O)(=O)Cc2ccccc2[N+](=O)[O-])cc1 [CBK034054]	106.854%
O=C(/C=C/c1ccc2c(c1)OCO2)N1CCN(C(=O)c2ccco2)CC1 [CBK144459]	109.886%
Cn1ncc(C#N)c1NC(=O)C1CC(c2ccc(Cl)c(Cl)c2)=NO1 (stereo not shown) [CBK267478]	123.81%
O=C(O)CCc1ccc(-c2cn3ccnc3c(Nc3ccc(Br)cc3)n2)cc1 [CBK038058]	104.424%
CCCC1(OC(=O)Nc2ccc(Cl)cc2)CCCCC1 [CBK026295]	117.452%
O=C(NCc1ccccc1)c1cnccc1C(F)(F)F [CBK200194]	101.973%
CNC1(c2nnnn2CCOC(=O)Nc2ccc(Cl)cc2)CCCC1 [CBK266253]	104.658%
C=CCNC(=O)N[C@H]1[C@H](O)[C@@H](N2CCC(C(=O)OC)CC2)[C@@H]2OC[C@H]1O2 [CBK288807]	145.077%
C/C(=N\NC(=O)CCN1CCN(C)CC1)c1ccc(O)cc1 [CBK263142]	101.205%

Rewritten in markdown: part of the list above

| Structure (SMILES) | % of control remaining |
| --- | --- |
| CC(C)[C@@H](CO)Nc1cncc(-c2ccc(F)cc2F)n1 [CBK065875] | 180.162% |
| CNC(=O)c1cc(-c2cccc(C)c2)oc1C [CBK047432] | 136.411% |
| c1cc(-c2nnc3n2CCCCS3)ccn1 [CBK288543] | 122.482% |
| COCC(C)NCc1ccccc1C (stereo not shown) [CBK027852] | 98.9381% |
| C=CCNC(=O)N[C@H]1[C@H](O)[C@@H](N2CCC(C(=O)OC)CC2)[C@@H]2OC[C@H]1O2 [CBK288807] | 145.077% |

The list continues.

Structure (SMILES)	% of control remaining
O=C(Nc1cnc(-c2cccc(C(F)(F)F)c2)c(-c2ccco2)n1)c1ccccn1 [CBK036873]	135.024%
O=C(Nc1ccc(F)c(F)c1)N[C@H]1CC[C@@]2(c3cccc(Br)c3)CCN(Cc3ccccc3)[C@H]2C1 [CBK047515]	93.5303%
CCOc1cc(OCC)cc(C(=O)N2CCCC3(CC2)CC(=O)c2ccc(C)cc2O3)c1 (stereo not shown) [CBK168241]	137.401%
COCCN1C(=O)C2(CC(=O)N(CCN3CCCC3=O)C2=O)c2cc(OC)ccc21 (stereo not shown) [CBK075189]	122.951%
COc1cccc(NC(=O)c2cncc(-c3ccc(C(=O)N4CCOCC4)cc3)c2)c1 [CBK160213]	93.7468%
O=C(Nc1ccc(C(F)(F)F)cc1)N(Cc1ccc2ccccc2c1)CC1CCNCC1 [CBK056720]	131.039%
CC(=O)Oc1cc(C(F)(F)F)nc(NCc2ccc(Cl)cc2)n1 [CBK000500]	96.5497%
CCn1cc(C(=O)N2CCn3cc(C(F)(F)F)nc3C2)c(C)n1 [CBK283916]	119.813%
O=C(NCc1nnc(-c2cccs2)o1)c1cccc(Cl)c1 [CBK284633]	120.353%
COCCNC(=O)Cn1c(-c2ccco2)cc2cccnc21 [CBK282720]	159.973%
O=C(NCC1CCN(c2ccc(F)c(F)c2)C1)c1c[nH]nc1C1CC1 (stereo not shown) [CBK305409]	123.843%
CC(=O)Nc1ccc(S(=O)(=O)NC2(C(F)(F)F)N=C(c3ccccc3)NC2=O)cc1 (stereo not shown) [CBK267932]	137.125%
O=C(c1ccco1)N1CCN(c2ncc(-c3ccc(N4CCOCC4)cc3)n3ccnc23)CC1 [CBK091225]	85.2419%
Cn1c(-c2ccccc2F)n[nH]c1=S [CBK028811]	137.988%
COc1cccc(-c2cnc3[nH]c(=O)n(Cc4ccc(Cl)cc4)c3n2)c1 [CBK064596]	88.2897%
CN(c1cccc(NS(=O)(=O)c2ccc3ccccc3c2)c1)S(C)(=O)=O [CBK267507]	147.367%
C=CCN1C(=O)C2(CC(=O)N(Cc3ccc(OC)c(OC)c3)C2=O)c2ccccc21 (stereo not shown) [CBK075148]	92.6618%
CN1CCC(N(C)C(=O)c2cc3oc(-c4ccccc4)nc3c(=O)n2C)C1 (stereo not shown) [CBK200424T]	116.757%
O=C(Nc1ccccc1)Nc1ccc(=O)n2c1[C@@H]1C[C@@H](CN(C(=O)c3ccc(F)cc3)C1)C2 [CBK288714]	106.298%
C[C@@H]1CN(Cc2ccco2)[C@H](C)CN1CC(=O)Nc1nc2c(s1)CCCC2 [CBK286530]	133.426%
O=C(O)COc1ccc(N2C(=O)c3ccc(Oc4cccc([N+](=O)[O-])c4)cc3C2=O)cc1 [CBK264259]	113.424%
CN1CCN(CCCNC(=O)N2CCN(c3ccccc3)CC2)CC1 [CBK155168]	105.722%
CCN1C(=O)CC2(C1=O)C(=O)N(CC)c1ccc(C)cc12 (stereo not shown) [CBK075140]	107.69%
O=C(C1=C(O)C(=O)N(Cc2cccnc2)C1c1ccncc1)c1ccc(Cl)cc1 (stereo not shown) [CBK264513]	129.668%
CCOc1cc(CCC(=O)NC(C)c2ccccc2)on1 (stereo not shown) [CBK282597]	136.837%
COc1ccccc1C(=O)N1CCC(C(=O)N(C)C(c2ccccc2)c2ncccc2C)CC1 (stereo not shown) [CBK060531]	100%

Structure (SMILES)	% of control remaining
O=[N+]([O-])c1cccc(-c2noc(COc3ccc(Br)cc3Cl)n2)c1 [CBK264452]	116.109%
COc1cccc2cc(C(=O)NCc3ccc(NS(C)(=O)=O)cc3)oc12 [CBK161479]	69.5733%
CC(=O)c1cn(CCC(=O)NC2CCCN(C)C2)c2ccccc12 (stereo not shown) [CBK282503]	119.17%
COc1ccc(Br)cc1S(=O)(=O)NCC(=O)Nc1ccc(F)cc1 [CBK042223]	102.071%
O=C(CCOc1ccccc1)Nc1cnc(-c2ccc(F)cc2)c(-c2ccco2)n1 [CBK036967]	112.175%
O=C(CC1Nc2ccccc2NC1=O)Nc1ccc(F)c(Cl)c1 (stereo not shown) [CBK266381]	100.938%
C=CCn1c(=O)c(C(=O)NCCCO)c(O)c2ccccc21 [CBK262481]	117.405%
Cc1ccc(NC(=O)c2cc(NC(=O)c3ccccc3C(=O)O)ccc2N2CCCCC2)cc1 [CBK265332]	105.946%
Cc1nn(CC(=O)N2CCCCC2)c(=O)c2cc3sccc3n12 [CBK284040]	107.89%
COc1ccc(NS(=O)(=O)c2cc(C(=O)O)cc(C)c2C)cc1OC [CBK295148]	121.775%
CC(C)CCc1c(O)nc(SCCN2CCOCC2)n(-c2ccccc2)c1=O [CBK263363C]	100%
O=C(CSc1ncnc2[nH]ncc12)c1ccc(-c2ccccc2)cc1 [CBK300519]	154.006%
O=[N+]([O-])c1ccc(Sc2cccs2)c(C(F)(F)F)c1 [CBK002621]	95.3958%
CN1CCC(N[C@H]2CC(C)(C)[C@@H]3C[C@@](C)(O)CC[C@]23CCC(=O)N2CCOCC2)CC1 [CBK289040]	146.855%
Cc1ccc(Nc2ncc(C(=O)NCCCN3CCCCCC3)c3ccccc23)cc1Cl [CBK291197]	128.824%
O=C(Cn1nnc2ccccc21)NC(c1ccccc1)c1ccccc1 [CBK297488]	108.006%
Cc1ccc(C(=O)C2=C(O)C(=O)N(CCO)C2c2ccccc2[N+](=O)[O-])cc1 (stereo not shown) [CBK263822]	110.643%
COc1ccc(CCNC(=O)CCn2nc(C)c(Cl)c2C)cc1C [CBK281643]	111.837%
Cc1ccc2[nH]c(C)c(CC(=O)N(C)CCN3CCCCC3)c2c1 [CBK282749]	126.487%
O=[N+]([O-])c1cc(CN2CCN(c3ccccc3)CC2)c(O)c2ncccc12 [CBK218696]	100%
COc1cccc(CC(=O)N2CCC(Cc3ccccc3-c3ccccc3)(C(N)=O)CC2)c1 [CBK285730]	138.906%
Cc1nc(CNCc2c(C(C)C)nn(C)c2N(C)C)cs1 [CBK305119]	121.247%
CN(C)CCCNC(=O)c1ccc([N+](=O)[O-])o1 [CBK262118]	36.3016%
CCOc1cc(S(=O)(=O)NCc2ccncc2)ccc1Br [CBK270147]	115.71%
